Assay results: publication PMC11898276
Results are given in words; binding and its absence hold for the method and conditions named. In cells and extracts the contact can be indirect. Some results given as binding are weak or reduced against the parent protein; the word gives no strength. For some of these results: Sequences can lack the tags named with a protein.

Chains of the proteins cited; added tags and fusions are not shown. Residues count along the entry.
UniProt P11142: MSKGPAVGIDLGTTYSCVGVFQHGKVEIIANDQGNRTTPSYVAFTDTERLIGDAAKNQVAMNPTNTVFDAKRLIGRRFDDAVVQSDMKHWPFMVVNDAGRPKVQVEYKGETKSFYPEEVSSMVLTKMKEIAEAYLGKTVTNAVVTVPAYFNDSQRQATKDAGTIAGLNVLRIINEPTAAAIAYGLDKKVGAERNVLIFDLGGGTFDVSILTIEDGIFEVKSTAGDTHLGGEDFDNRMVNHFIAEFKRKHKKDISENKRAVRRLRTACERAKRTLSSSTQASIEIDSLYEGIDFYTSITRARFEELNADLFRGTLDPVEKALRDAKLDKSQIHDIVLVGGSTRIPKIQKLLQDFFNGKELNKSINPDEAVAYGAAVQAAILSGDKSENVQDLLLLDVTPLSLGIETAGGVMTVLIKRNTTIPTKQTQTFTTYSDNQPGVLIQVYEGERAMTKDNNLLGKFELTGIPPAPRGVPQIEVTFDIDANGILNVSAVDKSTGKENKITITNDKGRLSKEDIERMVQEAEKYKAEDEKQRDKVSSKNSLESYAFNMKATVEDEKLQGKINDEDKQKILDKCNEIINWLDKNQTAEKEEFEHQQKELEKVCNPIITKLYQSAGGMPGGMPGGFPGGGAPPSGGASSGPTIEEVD
UniProt P13473, residues 29-410: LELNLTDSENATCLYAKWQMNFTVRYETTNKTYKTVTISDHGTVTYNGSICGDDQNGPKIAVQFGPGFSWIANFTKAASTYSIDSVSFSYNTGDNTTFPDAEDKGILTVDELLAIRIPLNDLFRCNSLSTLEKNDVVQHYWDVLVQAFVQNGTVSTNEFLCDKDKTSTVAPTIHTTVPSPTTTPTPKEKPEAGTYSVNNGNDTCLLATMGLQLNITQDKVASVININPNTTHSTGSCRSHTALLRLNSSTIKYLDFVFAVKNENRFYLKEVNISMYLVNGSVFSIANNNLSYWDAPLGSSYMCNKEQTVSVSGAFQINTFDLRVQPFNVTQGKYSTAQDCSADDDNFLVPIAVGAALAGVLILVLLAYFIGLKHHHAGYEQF
UniProt Q86WV6: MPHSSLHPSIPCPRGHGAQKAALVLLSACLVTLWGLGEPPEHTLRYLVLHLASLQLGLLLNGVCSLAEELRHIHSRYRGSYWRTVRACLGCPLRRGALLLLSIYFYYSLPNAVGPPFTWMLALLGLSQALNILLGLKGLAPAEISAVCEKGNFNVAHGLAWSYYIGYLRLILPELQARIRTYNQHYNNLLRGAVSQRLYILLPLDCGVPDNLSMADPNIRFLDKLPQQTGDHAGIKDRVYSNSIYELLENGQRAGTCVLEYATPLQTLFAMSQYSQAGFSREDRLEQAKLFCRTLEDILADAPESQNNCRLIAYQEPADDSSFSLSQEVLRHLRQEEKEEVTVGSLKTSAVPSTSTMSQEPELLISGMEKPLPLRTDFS

T1: HA-TBK1 WT (human) (UniProt Q9UHD2)
T1 sequence: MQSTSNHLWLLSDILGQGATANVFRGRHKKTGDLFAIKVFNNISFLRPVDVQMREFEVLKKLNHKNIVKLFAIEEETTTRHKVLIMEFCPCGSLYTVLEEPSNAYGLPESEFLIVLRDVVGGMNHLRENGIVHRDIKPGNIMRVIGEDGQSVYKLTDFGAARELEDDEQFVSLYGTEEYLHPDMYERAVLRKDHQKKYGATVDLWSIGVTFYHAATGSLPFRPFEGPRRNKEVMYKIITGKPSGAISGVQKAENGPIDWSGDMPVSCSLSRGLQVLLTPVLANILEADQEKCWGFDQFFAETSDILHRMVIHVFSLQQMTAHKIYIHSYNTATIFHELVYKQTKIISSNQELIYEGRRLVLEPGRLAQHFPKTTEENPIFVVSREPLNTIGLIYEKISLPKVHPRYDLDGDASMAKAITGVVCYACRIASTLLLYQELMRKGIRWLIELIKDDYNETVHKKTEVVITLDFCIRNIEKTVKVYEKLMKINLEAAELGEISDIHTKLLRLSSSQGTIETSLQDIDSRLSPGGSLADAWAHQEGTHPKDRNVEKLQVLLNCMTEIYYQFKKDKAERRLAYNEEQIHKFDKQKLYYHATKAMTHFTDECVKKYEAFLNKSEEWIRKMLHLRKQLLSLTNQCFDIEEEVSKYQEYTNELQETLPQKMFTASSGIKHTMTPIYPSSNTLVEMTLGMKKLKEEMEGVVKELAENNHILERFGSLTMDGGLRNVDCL

B1: TBK1 (enzyme, UniProt Q9UHD2 1-729)
chain: T1 sequence

Columns and labels:
[1] = molecular target: heat shock protein family A member 8 (HSPA8) (UniProt P11142); assay: co-IP; HSPA8 immunoprecipitated from cell lysate, FLAG-STING detected by blot; lysis buffer 140 mM KCl, 3 mM MgCl2, 1% NP-40, 20 mM HEPES pH 7.4, 1 mM EDTA, 1.5 mM EGTA; antibody overnight at 4 °C, protein G Sepharose
LAMP2A = LAMP2A (UniProt P13473); assay: co-IP; co-IP of STING or TBK1 with LAMP2A from cell lysate, with and without starvation of the cells; which partner was precipitated is not stated; lysis buffer 140 mM KCl, 1% NP-40, 20 mM HEPES pH 7.4
HA-TBK1 WT (human) = molecular target: T1, HA-TBK1 WT (human); assay: co-IP; TBK1 (HA-TBK1) immunoprecipitated from cell lysate, HSPA8 detected by blot; lysis buffer 140 mM KCl, 3 mM MgCl2, 1% NP-40, 20 mM HEPES pH 7.4, 1 mM EDTA, 1.5 mM EGTA; antibody overnight at 4 °C, protein G Sepharose

Molecule	binding (LAMP2A)	also measured
FLAG-STING WT (from UniProt Q86WV6 1-379)	–	binding [1]: binds
STING (from UniProt Q86WV6 1-379)	binds	–
heat shock protein family A member 8 (HSPA8) (from UniProt P11142 1-646)	–	binding (HA-TBK1 WT (human)): binds
B1	binds	–
